Measurements: PubChem BioAssay (NCATS)
Where “and” joins values, the source holds several entries; their conditions need not be identical. Identical values can stand only once. Some of the results follow. Further columns of the screen follow, without active or inactive calls. The list favours compounds with an active or inconclusive main result. For some assays here: The note in brackets gives the kind of curve behind each potency; many fits are weak.

Legend:
[1] = qHTS Assay for Inhibitors of PDE-IV (AID 607); conditions: HEK293 ACTOne CNG channel cells, membrane potential fluorescence; measured here: parental cell counter-screen
Method in brief: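 ACTOne HEK293 cells carry a modified cAMP-gated CNG channel and express endogenous PDE4; plated 1000 cells/well, compounds up to 22.9 uM final. Membrane-potential dye fluorescence (ex 535/em 590) was read; parental cells received 10 uM forskolin + 100 uM RO 20-1724.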

[2] = qHTS Assay for Lipid Storage Modulators (AID 1519); conditions: Drosophila S3 cells, BODIPY lipid droplet/cell ratio, laser cytometry, cells loaded with oleic acid
Method in brief: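 Cells seeded at 5,000 per well were treated with compounds over a concentration series and loaded with oleic acid (400 uM, as added). Lipid droplet fluorescence (488 nm excitation, 500-530 nm channel) was read by laser-scanning cytometry and normalized to 20 uM Triacsin C.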

[3] = qHTS assay for small molecule antagonists of vitamin D receptor signaling (AID 588541); conditions: HEK293T VDR-UAS-bla, beta-lactamase ratio, antagonist mode; measured here: W460 blue channel (cell viability)
[4] = qHTS assay for small molecule antagonists of retinoid X receptor alpha signaling (AID 588546); conditions: HEK293T RXRa-UAS-bla, beta-lactamase ratio, antagonist mode; measured here: W530 green channel, cytotoxicity proxy;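 further: cells stimulated with 9-cis-retinoic acid as agonist; on the % scale 0 is the no-effect control and ±100 the full control effect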
Method in brief: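 Beta-lactamase reporter inhibition, read as CCF4 fluorescence ratio (ex 405, em 460/530 nm) after 2 h at RT. HEK293T UAS-bla cells, 2500/well, were stimulated with 9-cis-RA at 500 or 100 nM final alongside test compound for 18 h at 37 C.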

[5] = qHTS assay for small molecule antagonists of peroxisome proliferator-activated receptor gamma signaling (AID 588537); conditions: HEK293 PPARg-UAS-bla, beta-lactamase ratio, antagonist mode; measured here: W460 blue channel
Method in brief: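 HEK293 cells, PPAR-gamma-UAS-bla, 3000/well. Pre-incubation 6-6.5 h, 37 C. Compound titration with rosiglitazone 50 nM final, 16 h. CCF4 dye, 2 h RT, dual-emission fluorescence.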

[6] = qHTS assay for small molecule agonists of retinoid X receptor alpha signaling (AID 588544); conditions: HEK293T RXRa-UAS-bla, beta-lactamase reporter, 18 h; 530 nm emission
[7] = measured here: cell count channel max response
[8] = measured here: cell number channel AC50
[9] = measured here: lipid (BODIPY) channel AC50
[10] = measured here: lipid channel max response

| SMILES | AC50 [1] | max response [2, 7] | AC50 [2, 8] | AC50 [2, 9] | max response [2, 10] | AC50 [3] | max response [4] [%] | AC50 [5] | max response [6] [%] |
| --- | --- | --- | --- | --- | --- | --- | --- | --- | --- |
| COc1ccc(CCCO[C@@H](Cn2ccnc2)c2ccc(OC)cc2)cc1 | 15.8 µM [rising, partial curve] | 72.5% | 0.224 µM [rising, full curve] | 0.158 µM [rising, full curve] | 95.9% |  |  |  |  |
| COc1ccc(C(=O)N2CCC[C@@]3(CCN(Cc4ccccc4OC)C3)C2)cc1 | 12.6 µM [rising, single point] | 25.4% | 2 µM [rising, full curve, poor fit] | 1.78 µM [rising, full curve] | 32.1% |  |  |  |  |
| COc1ccccc1CNc1ncncc1-c1ccc2c(c1)OCO2 | 12.6 µM [rising, single point] | 23.1% | 0.00501 µM [rising, full curve, poor fit] | 0.00562 µM [rising, full curve, poor fit] | 29.7% |  |  |  |  |
| O=C1CC2(CCCC2)CC(=O)N1CCCCNC[C@H]1COc2ccccc2O1 | 12.6 µM [rising, partial curve, poor fit] | 38.4% | 14.1 µM [rising, partial curve, poor fit] | 25.1 µM [rising, partial curve, poor fit] | 46.5% |  |  |  |  |
| O=C1c2ccccc2C(Cc2ccncc2)(Cc2ccncc2)c2ccccc21 | 15.8 µM [rising, partial curve] | 69.8% | 2.24 µM [rising, full curve] | 1.78 µM [rising, full curve, poor fit] | 76.2% |  |  |  |  |
| CO[C@@]12C[C@@H](COC(=O)c3cncc(Br)c3)CN(C)[C@H]1Cc1cn(C)c3cccc2c13 | 12.6 µM [rising, partial curve, poor fit] | 98.2% | 10 µM [rising, partial curve] | 11.2 µM [rising, partial curve] | 133% |  |  |  |  |
| COc1ccccc1CNc1cc(-c2ccccc2CN(C)C)ncn1 | 5.01 µM [rising, partial curve] | 41.5% | 17.8 µM [rising, partial curve, poor fit] | 35.5 µM [rising, partial curve, poor fit] | 47.6% |  |  |  |  |
| CN(Cc1ccco1)c1nc(-c2ccoc2)nc2ccccc12 | 10 µM [rising, single point] | 31.8% | 4.47 µM [rising, partial curve] | 3.98 µM [rising, partial curve] | 36.9% |  |  |  |  |
| COc1ccccc1-c1ccc2ncnc(N(C)Cc3ccco3)c2c1 | 12.6 µM [rising, single point] | 27.2% | 3.55 µM [rising, partial curve] | 3.16 µM [rising, partial curve] | 32.3% |  |  |  |  |
| COc1cccc(-c2cncnc2NCc2ccccc2OC)c1 | 10 µM [rising, single point] | 54.1% | 12.6 µM [rising, partial curve, poor fit] | 4.47 µM [rising, partial curve] | 61.3% |  |  |  |  |
| Cc1nc2sccn2c(=O)c1CCN1CCC(=C(c2ccccc2)c2ccc(F)cc2)CC1 | 7.94 µM [rising, partial curve] | 87.3% | 14.1 µM [rising, partial curve] | 14.1 µM [rising, partial curve] | 119% |  |  |  |  |
| c1ccc(CNc2ncnc3ccc(-c4ccc5c(c4)OCO5)cc23)cc1 | 12.6 µM [rising, partial curve] | 50.9% | 3.55 µM [rising, partial curve, poor fit] | 0.794 µM [rising, full curve, poor fit] | 62.5% |  |  |  |  |
| c1ccc(CN(CC2=NCCN2)c2ccccc2)cc1 | 0.0316 µM [rising, full curve, poor fit] | 55.8% | 35.5 µM [rising, partial curve, poor fit] | 35.5 µM [rising, partial curve, poor fit] | 72.9% |  |  |  |  |
| CN(C)Cc1ccccc1-c1nccc(N(C)Cc2ccco2)n1 | 7.94 µM [rising, partial curve] | 37.8% | 25.1 µM [rising, single point] | 31.6 µM [rising, single point] | 42.9% |  |  |  |  |
| COc1ccc(CNc2ncnc3ccc(-c4ccc5c(c4)OCO5)cc23)c(OC)c1 | 12.6 µM [rising, partial curve] | 17.5% | 3.16 µM [rising, partial curve] | 2.51 µM [rising, partial curve, poor fit] | 15.7% |  |  |  |  |
| Cc1cccc([C@@H]2CN(C)CCc3c2cc(O)c(O)c3Cl)c1 | 20 µM [rising, single point] | 60% | 15.8 µM [rising, partial curve, poor fit] | 15.8 µM [rising, partial curve, poor fit] | 57% |  |  |  |  |
| O=C(Nc1ccccc1)N1CC2(CCN(C(=O)c3cnccn3)CC2)C1 | 7.94 µM [rising, partial curve, poor fit] | 4.5% | 3.98 µM [rising, single point] | 4.47 µM [rising, partial curve, poor fit] | 11.2% |  |  |  |  |
| COc1ccc2oc(-c3ccccc3)c(OC)c(=O)c2c1 | 12.6 µM [rising, partial curve] | 93.1% | 2.51 µM [rising, full curve] | 3.55 µM [rising, partial curve] | 122% |  |  |  |  |
| N#Cc1ccc(CN2CCC3(CC2)CCN(C(=O)c2csnn2)CC3)cc1 | 0.794 µM [rising, single point] | 11.8% | 3.55 µM [rising, single point] | 3.55 µM [rising, partial curve] | 17.6% |  |  |  |  |
| N=C(C[C@@H](O)COc1ccccc1-c1ccccc1)N1CCCCC1 | 25.1 µM [rising, single point] | 32.9% | 35.5 µM [rising, single point] | 3.16 µM [rising, full curve, poor fit] | 33.9% |  |  |  |  |
| CN(CCOc1ccc(C[C@H](Nc2ccccc2C(=O)c2ccccc2)C(=O)O)cc1)c1ccccn1 | 12.6 µM [rising, partial curve, poor fit] and 15.8 µM [rising, partial curve, poor fit] | 87% and -8.52% | 25.1 µM [rising, partial curve] and 316 nM [falling, full curve, poor fit] | 31.6 µM [rising, partial curve] and 355 nM [falling, full curve, poor fit] | 111% and -8.88% | 7.08 µM [rising, full curve, poor fit] | 11.4 |  |  |
| Cc1cccc(CNc2nc(-c3ccccc3CN(C)C)nc3ccccc23)c1 | 10 µM [rising, partial curve] | -40.6% | 11.2 µM [falling, partial curve] | 20 µM [falling, partial curve] | -99.7% |  |  |  |  |
| CN(Cc1ccco1)c1nc(-c2ccc3c(c2)OCO3)nc2ccccc12 | 12.6 µM [rising, partial curve] | 27.9% | 0.0501 µM [rising, full curve, poor fit] | 0.0562 µM [rising, full curve] | 35.7% |  |  |  |  |
| COC(=O)c1ccccc1NC(=O)c1ccc(F)cc1 | 15.8 µM [rising, single point] | 126% | 2.51 µM [rising, full curve] | 2.51 µM [rising, full curve] | 167% |  |  |  |  |
| Cc1noc(NS(=O)(=O)c2cccc3c(N(C)C)cccc23)c1C | 15.8 µM [rising, single point] | 92.4% | 31.6 µM [rising, partial curve] | 31.6 µM [rising, partial curve] | 124% |  |  |  |  |
| Nc1c2c(nc3ccccc13)CCCC2 | 20 µM [falling, partial curve, poor fit] | 26.8% and 37.2% | 0.00891 µM [rising, full curve, poor fit] | 3.16 µM [rising, full curve, poor fit] and 3.98 µM [rising, partial curve, poor fit] | 36.4% and 54.2% |  |  | 10 µM [falling, partial curve, poor fit] | 29.6 |
| O=C(c1ccc(F)cc1)C1CCN(CCn2c(=S)[nH]c3ccccc3c2=O)CC1 | 20 µM [rising, single point] | 81.4% | 22.4 µM [rising, partial curve] | 28.2 µM [rising, partial curve] | 99.1% |  |  |  |  |
| CCc1ccccc1OC[C@@H](O)CN[C@H]1CCCc2ccccc21 | 15.8 µM [rising, partial curve] | -10.8% | 7.08 µM [rising, full curve] | 7.94 µM [rising, partial curve] | -81.2% |  |  |  |  |
| NC(=NC1C2CC3CC(C2)CC1C3)Nc1ccc(I)cc1 (centres undefined) | 5.01 µM [rising, partial curve, poor fit] | 35.8% | 7.08 µM [rising, full curve, poor fit] | 10 µM [rising, partial curve, poor fit] | 47.2% |  |  |  |  |
